# Laboratory results from the supplement of paper PMC8728848.
# Some of the results follow.
# B1: PhypaEULS3 (Physcomitrella patens) (protein)
# chain: MLPVRLHCKADPNFNLAAVPGQGPVMVPFSPNDDFQVWYKDVTMSTRVKDETGSSAFSLINKATGQALRHAPEDLAQCLLADYDSNALDQTVLWTMSEDMGQGYCCIRLASQITRNLDVFRGDKKSGGVKEGSPVITFAWKKQDNQIWKMITAILEQKLISEEDLNSAVDHHHHHH
# Experiments:
# Test in all cases: glycan array binding signal (z-score within array); higher = stronger binding
# Conditions in all cases: glycan notation: IUPAC condensed, linker removed
# Gal(b1-4)Glc = target: Gal(b1-4)Glc
# Procedure, shortened: (§1)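 Negative Z-scores can be read as non-binding. The Z-score is calculated within each array and then averaged across arrays of one protein sequence at different concentrations or buffers and across linkers. Arrays, 3228 in all, were curated from the Consortium for Functional Glycomics database and kept only where the protein sequence was available.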
# Gal(b1-4)Glc6S = target: Gal(b1-4)Glc6S
# Procedure, shortened: as §1
# Gal(b1-4)GlcNAc = target: Gal(b1-4)GlcNAc
# Procedure, shortened: as §1
# [1] = target: Gal(b1-4)GlcNAc(a1-6)Gal(b1-4)GlcNAc
# Procedure, shortened: as §1
# Gal(b1-4)GlcNAc(b1-2)Man = target: Gal(b1-4)GlcNAc(b1-2)Man
# Procedure, shortened: as §1
# [2] = target: Gal(b1-4)GlcNAc(b1-2)Man(a1-3)Man(b1-4)GlcNAc(b1-4)GlcNAc
# Procedure, shortened: as §1
# [3] = target: Gal(b1-4)GlcNAc(b1-2)Man(a1-3)[Gal(b1-4)GlcNAc(b1-2)Man(a1-6)]Man(b1-4)GlcNAc(b1-4)GlcNAc
# Procedure, shortened: as §1
# [4] = target: Gal(b1-4)GlcNAc(b1-2)Man(a1-3)[Gal(b1-4)GlcNAc(b1-2)Man(a1-6)]Man(b1-4)GlcNAc(b1-4)[Fuc(a1-6)]GlcNAc
# Procedure, shortened: as §1
# [5] = target: Gal(b1-4)GlcNAc(b1-2)Man(a1-3)[Gal(b1-4)GlcNAc(b1-2)Man(a1-6)][Gal(b1-4)GlcNAc(b1-4)]Man(b1-4)GlcNAc(b1-4)[Fuc(a1-6)]GlcNAc
# Procedure, shortened: as §1
# [6] = target: Gal(b1-4)GlcNAc(b1-2)Man(a1-3)[Gal(b1-4)GlcNAc(b1-2)Man(a1-6)][GlcNAc(b1-4)]Man(b1-4)GlcNAc(b1-4)[Fuc(a1-6)]GlcNAc
# Procedure, shortened: as §1
# [7] = target: Gal(b1-4)GlcNAc(b1-2)Man(a1-3)[GlcNAc(b1-2)Man(a1-6)]Man(b1-4)GlcNAc(b1-4)GlcNAc
# Procedure, shortened: as §1
# [8] = target: Gal(b1-4)GlcNAc(b1-2)Man(a1-3)[GlcNAc(b1-4)][Gal(b1-4)GlcNAc(b1-2)Man(a1-6)]Man(b1-4)GlcNAc(b1-4)GlcNAc
# Procedure, shortened: as §1
# [9] = target: Gal(b1-4)GlcNAc(b1-2)Man(a1-3)[Man(a1-6)]Man(b1-4)GlcNAc(b1-4)GlcNAc
# Procedure, shortened: as §1
# [10] = target: Gal(b1-4)GlcNAc(b1-2)Man(a1-6)Man(b1-4)GlcNAc(b1-4)GlcNAc
# Procedure, shortened: as §1
# [11] = target: Gal(b1-4)GlcNAc(b1-2)Man(a1-6)[GlcNAc(b1-2)Man(a1-3)]Man(b1-4)GlcNAc(b1-4)GlcNAc
# Procedure, shortened: as §1
# [12] = target: Gal(b1-4)GlcNAc(b1-2)Man(a1-6)[Man(a1-3)]Man(b1-4)GlcNAc(b1-4)GlcNAc
# Procedure, shortened: as §1
# [13] = target: Gal(b1-4)GlcNAc(b1-2)[Gal(b1-4)GlcNAc(b1-4)]Man(a1-3)[Gal(b1-4)GlcNAc(b1-2)Man(a1-6)]Man(b1-4)GlcNAc(b1-4)GlcNAc
# Procedure, shortened: as §1
# [14] = target: Gal(b1-4)GlcNAc(b1-2)[Gal(b1-4)GlcNAc(b1-4)]Man(a1-3)[Gal(b1-4)GlcNAc(b1-2)[Gal(b1-4)GlcNAc(b1-6)]Man(a1-6)]Man(b1-4)GlcNAc(b1-4)GlcNAc
# Procedure, shortened: as §1
# [15] = target: Gal(b1-4)GlcNAc(b1-2)[Gal(b1-4)GlcNAc(b1-4)]Man(a1-3)[GlcNAc(b1-4)][Gal(b1-4)GlcNAc(b1-2)Man(a1-6)]Man(b1-4)GlcNAc(b1-4)GlcNAc
# Procedure, shortened: as §1
# [16] = target: Gal(b1-4)GlcNAc(b1-2)[Gal(b1-4)GlcNAc(b1-4)]Man(a1-3)[GlcNAc(b1-4)][Gal(b1-4)GlcNAc(b1-2)[Gal(b1-4)GlcNAc(b1-6)]Man(a1-6)]Man(b1-4)GlcNAc(b1-4)GlcNAc
# Procedure, shortened: as §1
# [17] = target: Gal(b1-4)GlcNAc(b1-2)[Gal(b1-4)GlcNAc(b1-6)]Man(a1-6)[Gal(b1-4)GlcNAc(b1-2)Man(a1-3)]Man(b1-4)GlcNAc(b1-4)GlcNAc
# Procedure, shortened: as §1
# [18] = target: Gal(b1-4)GlcNAc(b1-2)[Gal(b1-4)GlcNAc(b1-6)]Man(a1-6)[Gal(b1-4)GlcNAc(b1-2)Man(a1-3)]Man(b1-4)GlcNAc(b1-4)[Fuc(a1-6)]GlcNAc
# Procedure, shortened: as §1
binder,measurement,setting,value
B1,glycan array binding signal (z-score),Gal(b1-4)Glc,-0.054
same,glycan array binding signal (z-score),Gal(b1-4)Glc6S,0.095
same,glycan array binding signal (z-score),Gal(b1-4)GlcNAc,-0.988
same,glycan array binding signal (z-score),[1],0.599
same,glycan array binding signal (z-score),Gal(b1-4)GlcNAc(b1-2)Man,1.11
same,glycan array binding signal (z-score),[2],0.27
same,glycan array binding signal (z-score),[3],-0.056
same,glycan array binding signal (z-score),[4],-0.773
same,glycan array binding signal (z-score),[5],0.873
same,glycan array binding signal (z-score),[6],0.268
same,glycan array binding signal (z-score),[7],-0.053
same,glycan array binding signal (z-score),[8],0.673
same,glycan array binding signal (z-score),[9],1.14
same,glycan array binding signal (z-score),[10],0.608
same,glycan array binding signal (z-score),[11],-0.146
same,glycan array binding signal (z-score),[12],0.338
same,glycan array binding signal (z-score),[13],-2.62
same,glycan array binding signal (z-score),[14],-0.549
same,glycan array binding signal (z-score),[15],-0.024
same,glycan array binding signal (z-score),[16],0.484
same,glycan array binding signal (z-score),[17],0.38
same,glycan array binding signal (z-score),[18],0.56

# As a short view, part of the list above.
binder,measurement,setting,value
B1,glycan array binding signal (z-score),Gal(b1-4)GlcNAc(b1-2)Man,1.11
same,glycan array binding signal (z-score),[2],0.27
